This assay concerns BDF1 mice, Adenocarcinoma 755 s.c., tumor weight T/C. As to the kind of experiment: NCI In Vivo Anticancer Drug Screen. Data for tumor model Adenocarcinoma 755 (subcutaneous) in B6D2F1 (BDF1) mice. The conditions noted are these: T/C endpoint: mean tumor weight, higher T/C = larger tumour; for T/C: evaluated on day 12. The essentials: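 Values express treated (T) relative to vehicle-dosed control (C) animals, based on survival or tumour size measured after compound treatment of mice bearing a transplanted tumour.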

[1] abbreviates: dose: 110.0 mg/kg/injection, schedule: Q01DX011 (sc), vehicle: steroid suspending solution.
Setting [2] is: dose: 200.0 mg/kg/injection, schedule: Q01DX011 (ip), vehicle: other.

This is an account of results in PubChem BioAssay AID180 (DTP/NCI, 2004).

The list shows only some results of the screen, not a fair sample: it gathers tests that were run many times, whatever their T/C, doses with no T/C, and many T/C values between a quarter and a half above the control. Other doses and runs of a compound stand elsewhere. T/C: endpoint of the treated group in % of that of the vehicle group. Schedule codes are those of the source, taken here to give the interval after Q, in days (D) or hours (H), and the number of doses after X. Some T/C values carry the count of animals alive at the toxicity check (mostly the fifth day); without a count, all were alive then. Some doses were run more than once; their values stand side by side, smallest first. Counts like (3×) give the number of equal values in this list. Some doses have a count of surviving animals in place of a T/C: the source holds a T/C of zero for them, seemingly a mark for toxic or unscored doses. Counts of survivors are from the toxicity check (mostly the fifth day) where no day follows; animals may have died later. Some schedule codes hold Z or #, which are not explained here.

As to `CC(=O)[C@@]1(O)CC[C@H]2[C@@H]3C[C@H](C)C4=CC(=O)C=C[C@]4(C)[C@@]3(F)[C@@H](O)C[C@@]21C`, the survivor count is reported as 1 of 10 (dose: 6.0 mg/kg/injection, schedule: Q#A X011 (sc), vehicle: steroid suspending solution); 0 of 10 (dose: 12.5 mg/kg/injection, schedule: Q#A X011 (sc), vehicle: steroid suspending solution); 6 of 10 (dose: 25.0 mg/kg/injection, schedule: Q01DX011 (sc), vehicle: steroid suspending solution); 0 of 10 (dose: 25.0 mg/kg/injection, schedule: Q#A X011 (sc), vehicle: steroid suspending solution); 0 of 10 (dose: 50.0 mg/kg/injection, schedule: Q#A X011 (sc), vehicle: steroid suspending solution); 5 of 10 (dose: 55.0 mg/kg/injection, schedule: Q01DX011 (sc), vehicle: steroid suspending solution). Besides, the survivor count is, setting by setting: (dose: 100.0 mg/kg/injection, schedule: Q01DX011 (ip), vehicle: steroid suspending solution) 5 of 10; under setting [1], 4 of 10; (dose: 200.0 mg/kg/injection, schedule: Q01DX011 (sc), vehicle: steroid suspending solution) 0 of 10 and 4 of 10; (dose: 220.0 mg/kg/injection, schedule: Q01DX011 (sc), vehicle: steroid suspending solution) 1 of 10, 2 of 10, 4 of 10, 7 of 12; (dose: 300.0 mg/kg/injection, schedule: Q01DX006 (iv), vehicle: steroid suspending solution) 0 of 10; (dose: 300.0 mg/kg/injection, schedule: Q01DX011 (im), vehicle: steroid suspending solution) 3 of 10. Further, the survivor count is, setting by setting: (dose: 300.0 mg/kg/injection, schedule: Q01DX011 (sc), vehicle: steroid suspending solution) 3 of 10; (dose: 400.0 mg/kg/injection, schedule: Q01DX011 (sc), vehicle: steroid suspending solution) 0 of 10. The T/C under setting [1] was 12 [7 of 10 alive], 18 [7 of 10 alive], 39 % of control.
On to `COc1ccc(-c2c(C)c(C(=O)O)nc(-c3ccc(C(=O)O)c(C(=O)O)n3)c2N)c(O)c1OC`, for which the T/C (dose: 400.0 mg/kg/injection, schedule: Q01DX011 (ip), vehicle: water) was 129 % of control [8 of 10 alive]. Also, the survivor count (dose: 500.0 mg/kg/injection, schedule: Q01DX011 (ip), vehicle: water) is 2 of 10.
`Nc1nc([S][Bi]([S]c2nc(N)nc3nc[nH]c23)[S]c2nc(N)nc3nc[nH]c23)c2[nH]cnc2n1`: the survivor count by setting is: (dose: 20.0 mg/kg/injection, schedule: Q01DX011 (ip), vehicle: saline) 1 of 10; (dose: 40.0 mg/kg/injection, schedule: Q01DX011 (ip), vehicle: saline) 0 of 10.
With `O=S(=O)(OCCCl)OCCCl`, the survivor count (dose: 50.0 mg/kg/injection, schedule: Q01DX011 (ip), vehicle: olive oil, sesame oil, peanut oil) was 4 of 10.
Regarding `CN(N=O)C(N)=O`, where the note is “dose: 3.16 mg/kg/injection, schedule: Q01DX011 (ip), vehicle: carboxymethylcellulose (CMC)”, the T/C is 138 % of control [9 of 10 alive].
As to `Nc1nc2n[nH]nc2c(=O)[nH]1`, the T/C is, setting by setting: (dose: 25.0 mg/kg/injection, schedule: Q01DX011 (ip), vehicle: other) 28, 29, 48 [9 of 10 alive], 50, 51, 52, 54, 58, 59 (2×), 61, 63, 68 (2×), 70, 77, 80, 84, 87 [9 of 10 alive], 104 [9 of 10 alive], 105, 109, 111, 121 % of control; (dose: 50.0 mg/kg/injection, schedule: Q01DX011 (ip), vehicle: other) 5, 11, 15 (2×), 16, 17 [9 of 10 alive], 20, 21 [9 of 10 alive], 24 [9 of 10 alive], 25, 27, 28 (2×), 29, 35, 37 (2×), 42, 42 [9 of 10 alive], 44 [7 of 10 alive], 52, 59, 61 [8 of 10 alive], 74 % of control; (dose: 100.0 mg/kg/injection, schedule: Q01DX011 (ip), vehicle: other) 1 [9 of 10 alive], 2 [9 of 10 alive], 3 [9 of 10 alive], 4 (2×), 4 [7 of 10 alive], 5 (4×), 6 (4×), 8, 8 [9 of 10 alive], 9, 10 [8 of 10 alive], 11 (3×), 13, 16 % of control [7 of 10 alive]; under setting [2], 1 [6 of 9 alive], 1 [7 of 10 alive] (2×), 1 [8 of 10 alive], 1 [9 of 10 alive], 2, 2 [7 of 10 alive], 3, 3 [7 of 10 alive] (2×), 3 [8 of 10 alive], 5 % of control [7 of 10 alive]. The survivor count is, setting by setting: (dose: 108.4 mg/kg/injection, schedule: Q01DX011 (ip), vehicle: carboxymethylcellulose (CMC)) 2 of 10; under setting [2], 3 of 10, 4 of 10, 5 of 10, 6 of 10; (dose: 300.0 mg/kg/injection, schedule: Q01DX011 (ip), vehicle: other) 1 of 10, 2 of 10, 5 of 10.
For the molecule `CC(=O)OCC1OC(n2ncc(=O)[nH]c2=O)C(OC(C)=O)C1OC(C)=O` (stereo not drawn), the T/C (dose: 750.0 mg/kg/injection, schedule: Q01DX011 (ip), vehicle: other) was 125 % of control [9 of 10 alive].
For `O=C1c2ccccc2C(=O)c2c1c(O)c1ccccc1c2O`, the survivor count reads like this: (dose: 100.0 mg/kg/injection, schedule: Q#A X022 (ip), vehicle: other) 4 of 10; (dose: 200.0 mg/kg/injection, schedule: Q#A X022 (ip), vehicle: other) 6 of 10; (dose: 400.0 mg/kg/injection, schedule: Q#A X022 (ip), vehicle: other) 4 of 10.
With `O=C(Nc1ccc(C2=NCCN2)cc1)c1cccc(C(=O)Nc2ccc(C3=NCCN3)cc2)c1`, the survivor count runs as follows: (dose: 37.5 mg/kg/injection, schedule: Q01DX011 (ip), vehicle: carboxymethylcellulose (CMC)) 5 of 10; (dose: 75.0 mg/kg/injection, schedule: Q01DX011 (ip), vehicle: carboxymethylcellulose (CMC)) 0 of 10; (dose: 150.0 mg/kg/injection, schedule: Q01DX011 (ip), vehicle: carboxymethylcellulose (CMC)) 0 of 10.
In the case of `CCCCSc1ncnc2c1ncn2C1CCCCO1` (stereo not drawn), for the setting “dose: 394.0 mg/kg/injection, schedule: Q01DX011 (ip), vehicle: carboxymethylcellulose (CMC)”, the survivor count is 0 of 10.
On to `Nc1nc(SCc2ccccc2)c2ncn(Cc3ccccc3)c2n1`, for which the survivor count (dose: 500.0 mg/kg/injection, schedule: Q01DX011 (ip), vehicle: methylcellulose (MC)) is listed as 3 of 10.
In the case of `O=c1[nH]c(=O)c2n[nH]nc2[nH]1`, the survivor count was 3 of 10 (dose: 800.0 mg/kg/injection, schedule: Q01DX011 (ip), vehicle: methylcellulose (MC)) and 1 of 10 (dose: 900.0 mg/kg/injection, schedule: Q01DX011 (ip), vehicle: methylcellulose (MC)).
As for `CN(C)c1ccc(/C=C/C2=[N+](C)c3ccccc3C2(C)C)cc1`, for the setting “dose: 4.0 mg/kg/injection, schedule: Q01DX011 (ip), vehicle: other”, the survivor count is given as 1 of 10.
On to `Nc1cnc(=O)[nH]c1N`, for which, where the note is “dose: 240.0 mg/kg/injection, schedule: Q01DX011 (ip), vehicle: carboxymethylcellulose (CMC)”, the T/C was 126 % of control.
Take `CC(=O)[C@H]1CC[C@H]2[C@@H]3CCC4=CC(=O)CC[C@]4(C)[C@H]3CC[C@]12C`: the T/C runs as follows: (dose: 125.0 mg/kg/injection, schedule: Q01DX011 (sc), vehicle: steroid suspending solution) 144 % of control [9 of 10 alive]; (dose: 1000.0 mg/kg/injection, schedule: Q01DX011 (sc), vehicle: steroid suspending solution) 126 % of control.
Regarding `Cn1cnc2c(Cl)nc(C(F)(F)F)nc21`, under “dose: 60.0 mg/kg/injection, schedule: Q01DX011 (ip), vehicle: carboxymethylcellulose (CMC)”, the survivor count is on record as 4 of 10.
Consider `O=C(Nc1ccc2c(O)c(N=Nc3ccccc3)c(S(=O)(=O)O)cc2c1)Nc1ccc2c(O)c(N=Nc3ccc4cc(S(=O)(=O)O)ccc4c3)c(S(=O)(=O)O)cc2c1`, for which the survivor count reads like this: (dose: 65.0 mg/kg/injection, schedule: Q01DX011 (ip), vehicle: carboxymethylcellulose (CMC)) 6 of 10; (dose: 100.0 mg/kg/injection, schedule: Q01DX011 (ip), vehicle: carboxymethylcellulose (CMC)) 6 of 10.
As for `O=S(=O)(F)c1ncnc2nc[nH]c12`, the survivor count (dose: 50.0 mg/kg/injection, schedule: Q01DX011 (ip), vehicle: methylcellulose (MC)) was 6 of 10.
On to `c1ccc2nc(-c3cc4ccccc4s3)ccc2c1`, for which the survivor count (dose: 450.0 mg/kg/injection, schedule: Q01DX011 (ip), vehicle: carboxymethylcellulose (CMC)) is 6 of 10.
